Results are given in words; binding and its absence hold for the method and conditions named. Binding seen in cells or lysates may run through a third protein.

Sequences of proteins named here, by UniProt entry; tags and fusion partners are left off.
UniProt P26599: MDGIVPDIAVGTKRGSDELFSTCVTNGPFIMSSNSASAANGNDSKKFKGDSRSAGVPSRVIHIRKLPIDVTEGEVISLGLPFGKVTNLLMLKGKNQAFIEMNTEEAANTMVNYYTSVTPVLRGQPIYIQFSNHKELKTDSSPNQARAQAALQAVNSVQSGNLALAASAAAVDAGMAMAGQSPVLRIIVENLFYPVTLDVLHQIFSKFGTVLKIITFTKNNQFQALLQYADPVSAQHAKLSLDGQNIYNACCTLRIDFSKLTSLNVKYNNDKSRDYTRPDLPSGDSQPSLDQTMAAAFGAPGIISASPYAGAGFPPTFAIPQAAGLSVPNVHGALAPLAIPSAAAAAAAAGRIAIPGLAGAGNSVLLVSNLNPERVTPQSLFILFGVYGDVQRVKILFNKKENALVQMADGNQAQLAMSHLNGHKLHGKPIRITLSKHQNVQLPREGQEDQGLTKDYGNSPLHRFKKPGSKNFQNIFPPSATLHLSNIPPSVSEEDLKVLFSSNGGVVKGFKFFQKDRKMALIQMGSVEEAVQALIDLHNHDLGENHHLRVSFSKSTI

In article PMC10570038 one finds binding data, which are given here for one substance.

This test concerns the target StrepII-His6-RBPMS-A (full length) (rat). The test can be described thus: pull-down; 2 μM StrepII-His6-RBPMS variant in 60% HeLa NE, 2.2 mM MgCl2, 2.6% PVA, 30°C 15 min; MagStrep 'type3' XT beads; six washes with 150 mM KCl buffer; elution with biotin; immunoblot; only the target purified.

On to PTBP1 (from UniProt P26599 1-557), for which the binding result is “no binding (tested: 2 μM StrepII-His6-RBPMS)”.
